For 39 compounds, cell number change and AC50 results are on record in PubChem BioAssay AID2685 (National Center for Advancing Translational Sciences (NCATS), 2010).

The other results are listed elsewhere or left out. Shown are side measurements of this screen, not its main read-out; they come without a call. Most of these compounds were active or inconclusive in the main read-out, so they are no random draw. Words in brackets tell the shape of the fitted curve; partial curves, single points and poor fits give uncertain potencies.

The nature of the experiment: qHTS Assay for Lipid Storage Modulators in Drosophila S3 Cells.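 As to cell number change: cells counted by Cell Tracker Red CMTPX staining in the red channel.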 Particulars: BODIPY lipid droplet fluorescence, 18-24 h; for cell number change: measured here: cell count max response, cells fed with added oleic acid. The essentials: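 Drosophila S3 cells got compounds at several concentrations plus oleic acid (400 uM solution). Laser-scanning cytometry with 488 nm excitation read lipid droplets at 500-530 nm and cells at 575-640 nm. Percent activity was relative to 20 uM Triacsin C.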

Where [1] appears, read: measured here: lipid fluorescence (Fed channel) AC50, cells fed with added oleic acid.
The mark [2] stands for this setting: measured here: cell number channel AC50, cells fed with added oleic acid.

As to `O=C(OCc1cncs1)c1ccccc1`, the cell number change is -21.2%. The AC50 under setting [1] was 29.1 µM [falling, single point].

Turning to `Nc1ncnc(Oc2cccc(C(F)(F)F)c2)c1[N+](=O)[O-]`, the cell number change was -9.05%.

As for `Cc1ccccc1NC(=O)COC(=O)c1c(-c2ccccc2)noc1C`, the cell number change is -8.34%. The AC50 under setting [1] was 6.51 µM [rising, full curve].

Regarding `Cc1ccnc(NS(=O)(=O)c2ccc(NC(=O)C34CC5CC(CC(C5)C3)C4)cc2)n1`, the cell number change is -14%. Moreover, the AC50 under setting [2] is 0.731 µM [falling, partial curve, poor fit]. Moreover, the AC50 under setting [1] was 0.0259 µM [falling, full curve, poor fit].

Turning to `CC(=O)N1CCN(CC(=O)Nc2cccc(S(=O)(=O)N3CCCCCC3)c2)CC1`, the cell number change amounted to 17.5%.

In the case of `CCN1CCN(CCCN(Cc2cccs2)C(=S)Nc2ccccc2C)CC1`, the cell number change is 87%. Moreover, under setting [2], the AC50 was 29.1 µM [rising, single point]. Also, under setting [1], the AC50 is 23.1 µM [rising, single point].

In the case of `COc1ccc(-c2nnc(Nc3nc4c(OC)cccc4s3)o2)c(OC)c1`, the cell number change was -23.3%. Also, the AC50 under setting [1] was 23.1 µM [falling, single point].

Regarding `Cc1cccc2cc(COC(=O)C(C)C)c(=O)[nH]c12`, the cell number change was -14.2%. For the same compound, the AC50 under setting [1] was 9.2 µM [rising, partial curve].

With `COc1ccc(NC(=O)N/C=C/c2ccco2)cc1`, the AC50 under setting [2] is 0.164 µM [falling, full curve, poor fit].

As to `C/C=C(\C)C(=O)O[C@H](c1cc2ccc(=O)oc2cc1OC)[C@@H](O)C(C)(C)O`, the cell number change was 8.66%. For the same compound, the AC50 under setting [1] is 20.6 µM [rising, single point].

For `NC(=O)C1CCN(C(=O)COc2ccc3c4c(c(=O)oc3c2)CCC4)CC1`, the cell number change was 37.2%. The AC50 under setting [1] was 3.26 µM [rising, single point].

As to `COc1ccc(OC)c(C2CC(=O)N3CN(c4ccccc4)CSC3=C2C#N)c1` (configuration not stated), the cell number change is -10.4%.

For the compound `CC1(C)CC(=O)C2=C(C1)Oc1ncn(CCCn3ccnc3)c(=N)c1C2c1ccccc1` (configuration not stated), the cell number change is 0.329%. Also, under setting [2], the AC50 was 0.092 µM [rising, full curve, poor fit].

For `O=C(CCNC(=O)N1CCn2c1nc1ccccc12)NCc1ccc(Cl)cc1`, the cell number change came to 12.9%. The AC50 under setting [1] was 29.1 µM [rising, single point].

With `Cc1ccc(NC(=O)CN(C)C(=O)c2ccc(Cl)c([N+](=O)[O-])c2)cc1`, the cell number change was -28.7%. In addition, under setting [1], the AC50 was 29.1 µM [falling, partial curve, poor fit].

As to `CCOP(=O)(OCC)c1ccccc1OCP(C)(=O)COc1ccccc1P(=O)(OCC)OCC`, the cell number change is -14.8%. Under setting [1], the AC50 is 6.51 µM [falling, single point].

As to `COc1ccccc1/C=N/NC(=O)c1cc2c(ccc3ccccc32)o1`, the cell number change was determined as 14.4%. Also, under setting [1], the AC50 is 29.1 µM [falling, single point].

On to `CSc1nc(N)nc(SCC(=O)CC(=O)OC(C)C)c1C#N`, for which the cell number change came to 214%. Besides, the AC50 under setting [2] is 20.6 µM [rising, single point].

With `CN1c2ccccc2C(C)(C)[C@]12C=Cc1cc(O)ccc1O2`, the cell number change was -93.4%. Under setting [2], the AC50 was 23.1 µM [falling, partial curve].

As for `CCOc1cc(N2CCOCC2)c(OCC)cc1NC(=O)C(C)(C)C`, the cell number change is -9.2%. The AC50 under setting [2] is 0.651 µM [rising, single point]. For the same compound, under setting [1], the AC50 was 0.461 µM [rising, partial curve, poor fit].

As for `COc1cccc(NC(=O)CN(c2ccccc2OC)S(=O)(=O)c2cccs2)c1`, the cell number change is 3.73%. In addition, the AC50 under setting [2] was 1.64 µM [falling, partial curve]. Moreover, under setting [1], the AC50 is 1.84 µM [falling, partial curve, poor fit].

`O=C(COc1ccc2ccc(=O)oc2c1)OCc1ccccc1`: the cell number change is 33.3%.

Regarding `CC(C)(C)NC(=S)Nc1ccc(Nc2ccccc2)cc1`, the cell number change was -25.1%. The AC50 under setting [1] was 1.46 µM [falling, partial curve, poor fit].

As to `COc1ccc(-c2nc(CN3CCC(C(=O)NC4CCN(Cc5ccccc5)CC4)CC3)c(C)o2)cc1OC`, the cell number change was -8.26%.

For `CCOc1ccc(CN(CC)C(=O)c2ccc3c(c2)[nH]c(=O)c(=O)n3CC)cc1OC`, the cell number change came to 4.76%. Under setting [1], the AC50 was 29.1 µM [falling, single point].

For `CC(C)(C)C(=O)Nc1ccc(C(=O)COC(=O)C2=COCCO2)cc1`, the cell number change is -29.7%.

In the case of `COc1ccc(OC)c(C(=O)NC(CC(N)=O)c2ccc(N3CCN(c4ccccn4)CC3)c([N+](=O)[O-])c2)c1` (configuration not stated), the cell number change came out at 6.89%.

`O=C1c2ccccc2C(Nc2ccccc2F)N1c1cccnc1` (configuration not stated): the cell number change was -8.57%. Moreover, the concentration at half-maximal activity (AC50) under setting [1] is 0.651 µM [falling, full curve, poor fit].

On to `CC(=O)c1cccc(N(CC(=O)N2CCCC2)S(C)(=O)=O)c1`, for which the cell number change is -70.3%. Moreover, the AC50 under setting [2] was 29.1 µM [falling, single point].

With `CCOC(=O)c1nnsc1NC(=O)Nc1ccc(OC)cc1`, the AC50 under setting [2] is 1.64 µM [falling, partial curve, poor fit].

As to `O=C(NCC1CCCO1)C(c1cccs1)N(C(=O)c1ccc(CN2CCOCC2)o1)c1ccc(Cl)cc1` (configuration not stated), the cell number change was -26.7%. Further, the AC50 under setting [1] is 23.1 µM [falling, single point].

On to `COc1ccc(N2CCN(C3CCCN(Cc4ccccc4OCCO)C3)CC2)cc1` (configuration not stated), for which, under setting [1], the AC50 is 0.651 µM [falling, single point].

Regarding `COC(=O)c1sccc1NC(=O)c1ccc(OC)c(OC)c1`, the AC50 was 3.66 µM [rising, single point] under setting [2] and 5.8 µM [rising, full curve] under setting [1].

Turning to `CC(C)c1ccc(N(CC(=O)NCc2ccc(F)cc2)C(=O)c2snc(C(N)=O)c2N)cc1`, the cell number change stood at 60%. Moreover, under setting [2], the AC50 was 29.1 µM [rising, single point]. In addition, the AC50 under setting [1] is 29.1 µM [rising, single point].

On to `COc1ccc2oc(=O)c(C(=O)N3CCCC3)cc2c1`, for which the cell number change was -1.2%. Moreover, the AC50 under setting [1] is 0.92 µM [falling, single point].

With `Cc1ccc(C(=O)NCc2ccco2)cc1`, the cell number change amounted to 3.17%. For the same compound, the AC50 under setting [1] is 16.4 µM [rising, single point].

As to `Oc1ccccc1-c1nc2c3ccccc3c3ccccc3c2[nH]1`, the cell number change was -8.05%. Besides, the AC50 under setting [1] is 29.1 µM [falling, single point].

On to `COc1cc(CN2CCC(CO)(Cc3cccc(C(F)(F)F)c3)CC2)ccc1F`, for which the cell number change was -12.8%. Moreover, the AC50 under setting [1] was 16.4 µM [falling, single point].

As to `O=C(Cn1cnc2ccccc2c1=O)c1ccc(OC(F)F)cc1`, the cell number change is -3.95%.
